{
  "sequences": {"note": "The chains behind the UniProt entries cited, without tags or fusion partners.", "UniProt Q9CAJ0": "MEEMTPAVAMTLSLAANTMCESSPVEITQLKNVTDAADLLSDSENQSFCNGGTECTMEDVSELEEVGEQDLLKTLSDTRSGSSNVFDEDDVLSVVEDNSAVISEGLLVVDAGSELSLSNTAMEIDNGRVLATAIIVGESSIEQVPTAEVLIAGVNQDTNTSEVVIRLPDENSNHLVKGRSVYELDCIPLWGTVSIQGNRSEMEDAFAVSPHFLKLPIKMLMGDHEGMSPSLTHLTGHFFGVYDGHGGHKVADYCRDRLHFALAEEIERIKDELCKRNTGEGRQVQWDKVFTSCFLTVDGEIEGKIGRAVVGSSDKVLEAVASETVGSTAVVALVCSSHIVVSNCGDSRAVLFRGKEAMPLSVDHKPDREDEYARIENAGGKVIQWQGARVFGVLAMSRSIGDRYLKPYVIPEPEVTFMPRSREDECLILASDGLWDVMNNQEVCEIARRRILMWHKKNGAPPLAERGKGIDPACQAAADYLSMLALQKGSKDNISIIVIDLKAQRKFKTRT"},
  "source": "patent US20110271408A1",
  "binders": {"B1": {"name": "PYL2 K64R, Y124H, M164I, V67I, V114I mutant, GAL4 BD fusion (pBD-PYL2) (receptor)", "chain": "MSSSPAVKGLTDEEQKTLEPVIKTYHQFEPDPTTCTSLITQRIHAPASVVWPLIRRFDNPERYRHFIKRCRLISGDGDVGSVREVTVISGLPASTSTERLEFVDDDHRVLSFRIVGGEHRLKNHKSVTSVNEFLNQDSGKVYTVVLESYTVDIPEGNTEEDTKIFVDTVVKLNLQKLGVAATSAPMHDDE"}},
  "target": "HAB1-GAL4 AD (Gal4 activation domain (AD)-PP2C fusion protein encoded by pAD-HAB1) (UniProt Q9CAJ0)",
  "assay": "yeast two-hybrid X-gal staining (Y190 pAD-HAB1) on increasing fenhexamid",
  "note": "No constants are given. Whether binding was seen depends on the method and setting. Some binding calls cover weakened binding; strength is not graded here. Sequences can lack the tags named with a protein.",
  "data": [
    {"binder": "B1", "values": [
      {"measurement": "binding", "result": "binds"}
    ]}
  ]
}
